These are yes or no findings as the source states them, for the method shown. For part of these data: Binding can be weak; no strength is given.
Key:
[1] = molecular target: human RYK on the surface of human tumor cell lines (human) (UniProt P34925); test: flow cytometry, K562 cells (CML); grade from MFIR
[2] = molecular target: human RYK on the surface of human tumor cell lines (human) (UniProt P34925); test: flow cytometry, A549 cells (lung); grade from MFIR
[3] = molecular target: human RYK on the surface of human tumor cell lines (human) (UniProt P34925); test: flow cytometry, H446 cells (lung); grade from MFIR
[4] = molecular target: human RYK on the surface of human tumor cell lines (human) (UniProt P34925); test: flow cytometry, H460 cells (lung); grade from MFIR
[5] = molecular target: human RYK on the surface of human tumor cell lines (human) (UniProt P34925); test: flow cytometry, HT144 cells (skin); grade from MFIR
[6] = molecular target: human RYK on the surface of human tumor cell lines (human) (UniProt P34925); test: flow cytometry, HT29 cells (colon); grade from MFIR
[7] = molecular target: human RYK on the surface of human tumor cell lines (human) (UniProt P34925); test: flow cytometry on tumor cell lines, 2-D11-Alexa647
[8] = molecular target: human RYK on the surface of human tumor cell lines (human) (UniProt P34925); test: flow cytometry, HS683 cells (brain); grade from MFIR
[9] = molecular target: human RYK on the surface of human tumor cell lines (human) (UniProt P34925); test: flow cytometry, MINO cells (mantle); grade from MFIR
[10] = molecular target: human RYK on the surface of human tumor cell lines (human) (UniProt P34925); test: flow cytometry, T24 cells (bladder); grade from MFIR
[11] = molecular target: human RYK on the surface of human tumor cell lines (human) (UniProt P34925); test: flow cytometry, BT549 cells (breast); grade from MFIR
[12] = molecular target: human RYK on the surface of human tumor cell lines (human) (UniProt P34925); test: flow cytometry, SKBR3 cells (breast); grade from MFIR
[13] = molecular target: human RYK on the surface of human tumor cell lines (human) (UniProt P34925); test: flow cytometry, T47-D cells (breast); grade from MFIR
[14] = molecular target: human RYK on the surface of human tumor cell lines (human) (UniProt P34925); test: flow cytometry, NCI H226 cells (lung); grade from MFIR
[15] = molecular target: human RYK on the surface of human tumor cell lines (human) (UniProt P34925); test: flow cytometry, SH-SY5Y cells (brain); grade from MFIR
[16] = molecular target: human RYK on the surface of human tumor cell lines (human) (UniProt P34925); test: flow cytometry on cell lines, 10 ug/ml 2-D11-Alexa647
[17] = molecular target: human RYK on the surface of human tumor cell lines (human) (UniProt P34925); test: flow cytometry, HS-578T cells (breast); grade from MFIR
[18] = molecular target: human RYK on the surface of human tumor cell lines (human) (UniProt P34925); test: flow cytometry, OVCAR4 cells (ovarian); grade from MFIR
[19] = molecular target: human RYK on the surface of human tumor cell lines (human) (UniProt P34925); test: flow cytometry, CAPAN-1 cells (pancreas); grade from MFIR
[20] = molecular target: human RYK on the surface of human tumor cell lines (human) (UniProt P34925); test: flow cytometry, COLO 829 cells (melanoma); grade from MFIR
[21] = molecular target: human RYK on the surface of human tumor cell lines (human) (UniProt P34925); test: flow cytometry, A673 cells (Ewings sarcoma); grade from MFIR
[22] = molecular target: human RYK on the surface of human tumor cell lines (human) (UniProt P34925); test: flow cytometry of viable tumor cell lines, 10 ug/ml 2-D11-Alexa647, 20 min on ice, against isotype control
[23] = molecular target: mRYK with human Leader; test: dot blot of recombinant RYK proteins (rabbit IgG tag) on nylon membrane, probed with the mAb, anti-mouse IgG-HRP
[24] = molecular target: human RYK on the surface of human tumor cell lines (human) (UniProt P34925); test: flow cytometry of dissociated primary triple-negative breast cancer PDX cells M0026 (T1), fluorochrome-conjugated 2-D11

The chains behind the UniProt entries cited, without tags or fusion partners. Where a name states a change or a piece, a line headed by the entry shows the natural chain unless it says otherwise.
UniProt P34925: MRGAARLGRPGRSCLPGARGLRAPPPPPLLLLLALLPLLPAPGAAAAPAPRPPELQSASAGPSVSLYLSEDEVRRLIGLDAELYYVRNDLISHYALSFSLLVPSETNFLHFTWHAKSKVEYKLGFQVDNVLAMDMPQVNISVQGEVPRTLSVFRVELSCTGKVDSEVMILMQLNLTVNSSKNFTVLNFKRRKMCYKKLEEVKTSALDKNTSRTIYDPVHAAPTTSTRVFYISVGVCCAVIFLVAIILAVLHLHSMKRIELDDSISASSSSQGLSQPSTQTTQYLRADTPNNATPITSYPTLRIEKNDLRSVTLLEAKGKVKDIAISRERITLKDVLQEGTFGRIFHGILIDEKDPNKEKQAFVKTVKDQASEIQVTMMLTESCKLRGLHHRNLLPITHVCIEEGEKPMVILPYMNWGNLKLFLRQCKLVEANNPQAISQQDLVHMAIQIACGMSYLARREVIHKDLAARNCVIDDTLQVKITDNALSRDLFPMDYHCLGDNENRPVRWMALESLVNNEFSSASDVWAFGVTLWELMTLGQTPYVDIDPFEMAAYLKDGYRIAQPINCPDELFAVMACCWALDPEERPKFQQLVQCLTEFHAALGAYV

binding [1]: binds
binding [2]: binds
binding [3]: binds
binding [4]: binds
binding [5]: binds
binding [6]: binds
binding [7]: binds
binding [8]: binds
binding [9]: binds
binding [10]: binds
binding [11]: binds
binding [12]: binds
binding [13]: binds
binding [14]: binds
binding [15]: binds
binding [16]: binds
binding [17]: binds
binding [18]: binds
binding [19]: binds
binding [20]: binds
binding [21]: binds
binding [23]: no binding
binding [24]: binds
B1: 2-D11 anti-human RYK mAb (antibody, V domains shown)
VH: QVQLKESGPGLVAPSQSLSITCSVSGFSLNDYGVNWVRQPPGKDLEWLGMIWGDGVTEYNSTLKSRLSISKDNSKSQVFLKMNNLQTEDTARYYCVRQGSGVWFAHWGQGTLVSVSS
VL: DVLVTQTPLSLPVSLGDQASISCRSSQTIVHSNGNTYLEWYLQKPGQSPKLLIYKVSNRFSGVPDRFSGSGSGTDFTLKISRVEAEDLGIYYCFQGSHVPYTFGGGTKLEIK
binding [22]: binds
